# Measurements reported in PubChem BioAssay AID1439 (NMMLSC, 2008).
# By UniProt entry, the sequences of proteins in these tests, tags left out.
# UniProt P09471, whole entry, looked up: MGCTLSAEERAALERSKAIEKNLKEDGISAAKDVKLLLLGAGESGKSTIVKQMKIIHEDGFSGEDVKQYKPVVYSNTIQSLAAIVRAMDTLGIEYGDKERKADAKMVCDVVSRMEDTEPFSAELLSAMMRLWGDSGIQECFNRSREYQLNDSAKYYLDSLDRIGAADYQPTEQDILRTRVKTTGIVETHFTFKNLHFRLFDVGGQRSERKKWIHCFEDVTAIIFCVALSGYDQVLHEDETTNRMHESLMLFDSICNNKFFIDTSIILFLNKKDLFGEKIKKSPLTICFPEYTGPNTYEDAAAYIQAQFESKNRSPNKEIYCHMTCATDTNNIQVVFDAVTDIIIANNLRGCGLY
# About 770 (0.35%) of roughly 220,000 compounds were called active. The shares of active, inactive and inconclusive entries below differ from those in the screen. Cut-off read from the data, not from the text of the source: active = binding response below about 49% or above about 150%; inconclusive = no clear call, values can overlap the other calls; inactive = in between.
# Biological target: Guanine nucleotide-binding protein G(o) subunit alpha (Homo sapiens) (UniProt P09471)
# Test: RGS7-Galphao binding modulators, primary screen, biochemical, multiplexed bead flow cytometry (AID 1439);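 note: fluorescent Galphao held in activated GDP-AlF4 state binding bead-coupled RGS7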
# Conditions: at 10 µM, actives lie on both sides
row,Compound,binding response (% of control)
1,CCOCC(=O)Nc1cccc(C(=O)OCC)c1,inactive: 96%
2,CC(C)(C)OC(=O)NCCC(=O)N/N=C/c1ccc2nccnc2c1,inconclusive: 119%
3,NC(=O)NN=C1C2CCCC1C(c1ccccc1)NC2c1ccccc1 (configuration not stated),inconclusive: 230%
4,CCOC(=O)c1ccc(NC(=O)c2nc[nH]c2C(=O)NCC(=O)OC(C)(C)C)cc1,inconclusive: 77.9%
5,CN1CCCN(C(=O)c2cc(-c3cccc4ccccc34)nc3ccccc23)CC1,inconclusive: 97.2%
6,CCOC(=O)c1cc(-c2cccs2)nc2c1c(C)nn2-c1ccccn1,inactive: 105%
7,Nc1nn(-c2ccccc2Cl)cc1-c1nn[nH]n1,inconclusive: 121%
8,C=CCOC(=O)C1=C(C)NC(C)=C(C(=O)OCC=C)C1c1ccco1,inconclusive: 67.1%
9,O=C1OCCN/C1=C\C(=O)c1ccccc1,inconclusive: 125%
10,COc1ccccc1NC(=O)C[n+]1ccccc1,inactive: 99.2%
11,COc1cc(O)c(C(CCN2CCOCC2)c2cc(OC)c(OC)c(OC)c2)c(OC)c1 (configuration not stated),inconclusive: 120%
12,COC(=O)/C(C#N)=C/c1c(Oc2cc(C)cc(C)c2)nc2ccccn2c1=O,inconclusive: 79.7%
13,CCCCCCCc1c(O)nc(SCCN(C)C)[nH]c1=O,inconclusive: 251%
14,CSc1nc(O)cc(=O)n1-c1ccc(F)cc1,inconclusive: 72%
15,CCOC(=O)C(=O)N/N=C(/c1ccccc1)c1ccc(OC)cc1,inconclusive: 72.3%
16,CCOC(=O)C(=CNc1cc(OC)ccc1-n1cccc1)C(=O)OCC,inconclusive: 232%
17,Cc1nc(Sc2ccc(Cl)cc2)c(C#N)c(C)c1[N+](=O)[O-],inconclusive: 116%
18,Cc1ccc(NC(=O)C23CCC(C)(C(=O)[C@H]2Br)C3(C)C)cc1 (some centres not stated),inconclusive: 53%
19,O=C(COC(=O)C1CCN(S(=O)(=O)c2cccs2)CC1)NCc1ccc(F)cc1,inconclusive: -356%

row,Compound,binding response (% of control)
1,O=C1CC(N2CCCc3ccccc32)C(=O)N1c1ccccc1Cl (configuration not stated),inactive: 101%
2,COCCCNC(=O)CSC1=Nc2ccccc2C2=NC(Cc3c[nH]c4ccccc34)C(=O)N12 (configuration not stated),inactive: 104%
3,C(#CC1CCCC1)c1ccc2c(c1)COc1c3ccccc3nn1-2,inconclusive: 113%
4,CSc1ccccc1NS(=O)(=O)c1ccccc1,inactive: 104%
5,Cc1c(C(=O)NNc2c(Cl)cccc2Cl)n(C)oc1=O,inconclusive: 117%
6,Cc1ccc(-n2c(C)c([N+](=O)[O-])c3ccc(O)cc32)cc1,inconclusive: 71.1%
7,COc1ccc(N(CC(=O)N2CCN(Cc3ccc4c(c3)OCO4)CC2)S(=O)(=O)c2ccc(F)cc2)cc1,inconclusive: 108%
8,Cc1cc(C)nc(/N=C(\N)Nc2ccc(C(C)C)cc2)n1,inconclusive: 108%
9,Cc1cccc(C(=O)N[C@H](C(=O)Nc2cccc(S(=O)(=O)N3CCCC3)c2)C(C)C)c1,inconclusive: 102%
10,O=C(CSc1nnc(-c2ccccc2)o1)Nc1ccccc1F,active: 173% [activator]
11,COc1ccc(C2(NC(C)=O)CCN(C(=O)c3ccco3)CC2)cc1,inactive: 92.9%
12,CCOC(=O)Nc1ccc2nc(N3CCCCCC3)sc2c1,inconclusive: 103%
13,O=C(c1ccco1)N1CCN(c2cc(N3CCOCC3)c(F)cc2[N+](=O)[O-])CC1,inactive: 96.3%
14,Cc1cc2nc(CS(=O)(=O)c3ccccc3)cc(=O)n2[nH]1,inconclusive: 115%
15,CC1CCc2c(sc3nc(SCC(=O)O)n(-c4ccccc4)c(=O)c23)C1 (configuration not stated),inconclusive: 99.4%
16,NC(=O)[C@@H]1CC2(CC(c3cccc(NC(=O)[C@@H]4CCC(=O)N4)c3)=NO2)CN1C(=O)Cc1ccc([N+](=O)[O-])cc1 (some centres not stated),inconclusive: 83.8%
17,CC(=O)C1=C(C)OC(N)=C(C#N)C1c1cc([N+](=O)[O-])ccc1Cl (configuration not stated),inconclusive: 85.1%
18,O=C(CSCc1ccc(C(=O)O)cc1)Nc1ccc2ccccc2c1,inconclusive: 117%
19,CCN1CCCC1CNCc1cccc(OC)c1OCc1ccc(F)cc1 (configuration not stated),inactive: 95.5%

row,Compound,binding response (% of control)
1,Fc1ccc(N2CN(Cc3cccnc3)CNC2=S)cc1,inconclusive: 76.1%
2,O=C(CN1C(=O)NC2(CCCC2)C1=O)N1CCN(S(=O)(=O)c2ccccc2)CC1,inconclusive: 112%
3,CCC(C)[C@H](NC(=O)N1CCC(C)CC1)C(=O)OC (some centres not stated),inconclusive: 70.9%
4,CC(C)(C)c1ccc(S(=O)(=O)NNC(=O)C2CCN(Cc3cccc(F)c3)CC2)cc1,inconclusive: 99.3%
5,COc1cc(C(=O)NC(=S)Nc2ccc3c(c2)OCO3)cc(OC)c1OC,inconclusive: 141%
6,CCCC(=O)NC(c1ccc(OCC)cc1)c1ccc(OC)c(OC)c1 (configuration not stated),inconclusive: 95.2%
7,O=C(/C=C/c1ccc([N+](=O)[O-])cc1)Nc1ncc([N+](=O)[O-])s1,inconclusive: 94.9%
8,O=C(CN1C(=O)NC2(CCCCCC2)C1=O)NC1CC1,inactive: 123%
9,COC(=O)c1ccccc1-c1ccc(/C=N/Nc2nc(N3CCCC3)nc(N3CCCC3)n2)o1,inconclusive: 136%
10,O=[N+]([O-])c1ccc(N/N=C/c2ccccc2)cc1,inconclusive: 146%
11,O=C(Nc1nc2cc3c(cc2s1)OCO3)C1CC1,inconclusive: 167%
12,COc1ccc(Cl)cc1CSc1ncn[nH]1,inconclusive: 51.7%
13,CCCC(=O)Nc1ccc2nc(SCC(=O)Nc3nccs3)sc2c1,active: 14.6%
14,COC(=O)c1cccc(C23CC4(C2)[C@H](CN(C)[C@@H]4c2ccccc2)C3c2ccccc2)c1 (some centres not stated),inconclusive: 97.2%
15,CN1CCc2c(sc(NC(=O)c3ccc(S(=O)(=O)N4CCc5ccccc54)cc3)c2C(N)=O)C1,inconclusive: 79.3%
16,CNC(=S)Nc1cccc(C(=O)OC)c1,inconclusive: -31.7%
17,CCCc1nnc(NC(=O)c2ccncc2)s1,inactive: 92.3%
18,C/C=C(\C)C(=O)N1CC2(CC(c3cccc(NC(=O)COc4ccc(Cl)cc4)c3)=NO2)C[C@@H]1C(N)=O (some centres not stated),inconclusive: 85.2%
19,CC(=O)c1cccc(Nc2cc(C)nc3ccc(C)cc23)c1,inconclusive: 69.7%

# Exported with tabs: entries from further up
row	Compound	binding response (% of control)
9	COC(=O)c1ccccc1-c1ccc(/C=N/Nc2nc(N3CCCC3)nc(N3CCCC3)n2)o1	inconclusive: 136%
10	O=[N+]([O-])c1ccc(N/N=C/c2ccccc2)cc1	inconclusive: 146%
11	O=C(Nc1nc2cc3c(cc2s1)OCO3)C1CC1	inconclusive: 167%
12	COc1ccc(Cl)cc1CSc1ncn[nH]1	inconclusive: 51.7%
